PubChem BioAssay AID652272, Drosophila RNAi Screening Center | 2013

- Aim: 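Genome-wide knock-down search for components of Hedgehog signalling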 (primary screen)
- System: Drosophila clone 8 (Cl8) cells
- Knock-down reagent: long dsRNA against Drosophila genes
- Read-out: 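Plate reader light from a firefly reporter under a ptc promoter fragment that responds to Hedgehog, with Renilla light as transfection reference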
- Scale: firefly Hh reporter signal: higher = more ptc reporter light; Renilla reference signal: higher = more Renilla control light
- Rule for the call: 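Hit when the z-score averaged over two replicates is under -2 or over +3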
- Calls: active = hit: reporter lowered or raised; inactive = not a hit
In all, the deposit lists about 21,000 reagents; shown is an unselected part of those with a known target gene and a result. Over the whole deposit, 503 (2.4%) got an active call. 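Raw plate light values, not normalised; calls rest on replicate z-scores that were not deposited; hits include reporter decreases as well as increases.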 Not given: the amount of reagent, the time to read-out.

{"gene": "CG42232", "amplicon": "DRSC15018", "firefly Hh reporter signal, replicate 1": 54944, "firefly Hh reporter signal, replicate 2": 39464, "Renilla reference signal, replicate 1": 2976, "Renilla reference signal, replicate 2": 1943, "outcome": "inactive"}
{"gene": "CG42232", "amplicon": "DRSC15019", "firefly Hh reporter signal, replicate 1": 1.07e5, "firefly Hh reporter signal, replicate 2": 83706, "Renilla reference signal, replicate 1": 5229, "Renilla reference signal, replicate 2": 3778, "outcome": "inactive"}
{"gene": "DAAM (Dishevelled Associated Activator of Morphogenesis)", "amplicon": "DRSC18479", "firefly Hh reporter signal, replicate 1": 5.58e5, "firefly Hh reporter signal, replicate 2": 99240, "Renilla reference signal, replicate 1": 3757, "Renilla reference signal, replicate 2": 3757, "outcome": "inactive"}
{"gene": "CCT4 (Chaperonin containing TCP1 subunit 4)", "amplicon": "DRSC02865", "firefly Hh reporter signal, replicate 1": 94820, "firefly Hh reporter signal, replicate 2": 48979, "Renilla reference signal, replicate 1": 2989, "Renilla reference signal, replicate 2": 5672, "outcome": "inactive"}
{"gene": "VhaM9.7-c (Vacuolar H[+] ATPase M9.7 subunit c)", "amplicon": "DRSC08204", "firefly Hh reporter signal, replicate 1": 1.05e5, "firefly Hh reporter signal, replicate 2": 54343, "Renilla reference signal, replicate 1": 4402, "Renilla reference signal, replicate 2": 2214, "outcome": "inactive"}
{"gene": "Rap2l (Ras-associated protein 2-like)", "amplicon": "DRSC04646", "firefly Hh reporter signal, replicate 1": 92385, "firefly Hh reporter signal, replicate 2": 96988, "Renilla reference signal, replicate 1": 1803, "Renilla reference signal, replicate 2": 7302, "outcome": "inactive"}
{"gene": "Vang (Van Gogh)", "amplicon": "DRSC07570", "firefly Hh reporter signal, replicate 1": 1.04e5, "firefly Hh reporter signal, replicate 2": 51864, "Renilla reference signal, replicate 1": 2096, "Renilla reference signal, replicate 2": 5003, "outcome": "inactive"}
{"gene": "eIF3b (eukaryotic translation initiation factor 3 subunit b)", "amplicon": "DRSC06900", "firefly Hh reporter signal, replicate 1": 50344, "firefly Hh reporter signal, replicate 2": 28929, "Renilla reference signal, replicate 1": 1846, "Renilla reference signal, replicate 2": 2984, "outcome": "inactive"}
{"gene": "ind (intermediate neuroblasts defective)", "amplicon": "DRSC11355", "firefly Hh reporter signal, replicate 1": 40160, "Renilla reference signal, replicate 1": 2646, "Renilla reference signal, replicate 2": 1492, "outcome": "inactive"}
{"gene": "CG31419", "amplicon": "DRSC15771", "firefly Hh reporter signal, replicate 1": 66390, "firefly Hh reporter signal, replicate 2": 92220, "Renilla reference signal, replicate 1": 1705, "Renilla reference signal, replicate 2": 2241, "outcome": "inactive"}
{"gene": "CG11180", "amplicon": "DRSC06055", "firefly Hh reporter signal, replicate 1": 1.28e5, "firefly Hh reporter signal, replicate 2": 75659, "Renilla reference signal, replicate 1": 6773, "Renilla reference signal, replicate 2": 4089, "outcome": "inactive"}
{"gene": "Tsp68C (Tetraspanin 68C)", "amplicon": "DRSC09295", "firefly Hh reporter signal, replicate 1": 2.12e5, "Renilla reference signal, replicate 1": 3234, "outcome": "inactive"}
{"gene": "ea (easter)", "amplicon": "DRSC16939", "firefly Hh reporter signal, replicate 1": 73570, "firefly Hh reporter signal, replicate 2": 97046, "Renilla reference signal, replicate 1": 1520, "Renilla reference signal, replicate 2": 2040, "outcome": "inactive"}
{"gene": "ACXC (Adenylyl cyclase X C)", "amplicon": "DRSC00846", "firefly Hh reporter signal, replicate 1": 1.17e5, "firefly Hh reporter signal, replicate 2": 52066, "Renilla reference signal, replicate 1": 2966, "Renilla reference signal, replicate 2": 4380, "outcome": "inactive"}

Part of the list above, set out differently:
gene,amplicon,"firefly Hh reporter signal, replicate 1","firefly Hh reporter signal, replicate 2","Renilla reference signal, replicate 1","Renilla reference signal, replicate 2",outcome
VhaM9.7-c (Vacuolar H[+] ATPase M9.7 subunit c),DRSC08204,1.05e5,54343,4402,2214,inactive
Rap2l (Ras-associated protein 2-like),DRSC04646,92385,96988,1803,7302,inactive
